Results are given in words; binding and its absence hold for the method and conditions named. In cells and extracts the contact can be indirect. Some entries that bind do so weakly or less than the wild type.
Key:
[1] = target: TGF-β type II serine/threonine kinase receptor (TβRII), endogenous (human (endogenous in MCF10A-RAS and HEK293T)) (UniProt P37173); experiment: co-IP; endogenous proteins, non-transfected MCF10A-RAS cells treated with NH4Cl (25 mM); limiting amounts of TβRII antibody; non-specific antibody as control
[2] = target: Flag-FAF1 from Myr-AKT-expressing cells (phosphorylated by AKT at Ser 582) (UniProt Q9UNN5); experiment: co-IP; HEK293T cells transfected with Flag-FAF1 and Myr-HA-AKT; immunoprecipitants and total cell lysate immunoblotted
Flag-FAF1 S582A = Flag-FAF1 S582A (UniProt Q9UNN5); experiment: co-IP; HEK293T cells transfected with Flag-FAF1 wt/S582A/S582D; immunoprecipitants and total cell lysate immunoblotted

By UniProt entry, the sequences of proteins in these tests, tags left out. Where a name states a change or a piece, a line headed by the entry shows the natural chain unless it says otherwise. Residues count along the entry.
UniProt P37173, residues 23-567: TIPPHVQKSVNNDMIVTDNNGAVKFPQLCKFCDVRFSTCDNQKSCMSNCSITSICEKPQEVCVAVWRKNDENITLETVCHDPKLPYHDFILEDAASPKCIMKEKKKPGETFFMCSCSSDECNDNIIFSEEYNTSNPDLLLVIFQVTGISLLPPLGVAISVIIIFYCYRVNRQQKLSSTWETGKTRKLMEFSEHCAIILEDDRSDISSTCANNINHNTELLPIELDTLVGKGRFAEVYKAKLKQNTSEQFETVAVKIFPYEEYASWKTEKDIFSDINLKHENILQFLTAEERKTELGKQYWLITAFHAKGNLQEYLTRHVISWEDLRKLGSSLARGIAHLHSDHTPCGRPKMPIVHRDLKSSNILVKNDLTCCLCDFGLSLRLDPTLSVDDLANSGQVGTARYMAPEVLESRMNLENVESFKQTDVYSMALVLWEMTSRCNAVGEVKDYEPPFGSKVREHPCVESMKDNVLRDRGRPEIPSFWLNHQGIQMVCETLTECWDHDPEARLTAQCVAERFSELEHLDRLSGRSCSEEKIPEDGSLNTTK
UniProt Q9UNN5: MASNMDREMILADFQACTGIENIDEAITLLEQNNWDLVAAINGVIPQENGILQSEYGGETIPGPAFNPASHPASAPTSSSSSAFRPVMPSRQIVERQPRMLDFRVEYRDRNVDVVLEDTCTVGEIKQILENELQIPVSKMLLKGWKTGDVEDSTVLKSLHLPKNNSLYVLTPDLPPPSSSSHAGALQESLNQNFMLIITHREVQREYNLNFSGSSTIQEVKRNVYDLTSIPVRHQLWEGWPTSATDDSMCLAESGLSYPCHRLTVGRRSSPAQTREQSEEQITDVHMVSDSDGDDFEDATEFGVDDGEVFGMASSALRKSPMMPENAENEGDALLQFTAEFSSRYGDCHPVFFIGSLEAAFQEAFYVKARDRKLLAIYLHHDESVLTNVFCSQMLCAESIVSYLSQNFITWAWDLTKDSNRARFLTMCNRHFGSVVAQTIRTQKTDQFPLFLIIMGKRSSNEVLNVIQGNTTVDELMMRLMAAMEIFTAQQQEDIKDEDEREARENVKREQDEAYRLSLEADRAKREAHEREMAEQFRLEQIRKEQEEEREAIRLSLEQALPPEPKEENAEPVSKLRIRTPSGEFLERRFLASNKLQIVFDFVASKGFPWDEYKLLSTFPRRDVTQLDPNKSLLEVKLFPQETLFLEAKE

Row | binding [1] | binding [2] | binding (Flag-FAF1 S582A) | Substance
1 | binds |  |  | FAS-associated factor 1 (FAF1), endogenous (from UniProt Q9UNN5 1-650)
2 |  | binds weakly | binds | TGF-β type II serine/threonine kinase receptor (TβRII), endogenous (from UniProt P37173 23-567)
